# Test results taken from the supplement of paper PMC4604168 (melanoma cell lines).
# The list shows a part of the results. Repeats are few or missing, and single values can be far off.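 Imaging used 1,536-well plates; nuclei positive for cleaved PARP by antibody were divided by total DNA-stained nuclei to yield the apoptosis fraction. Doses for screening kept most cells viable, and cell lines differ markedly in resting and induced cleaved-PARP levels.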
# What was measured:
# Assay in all cases: cleaved PARP positive nuclei fraction relative to DMSO control; melanoma cells; higher = more apoptosis
# Details in all cases: library dose: low library concentration; 72 h
# WM115 = test system: WM115
# WM1716 = test system: WM1716
# WM1745 = test system: WM1745
# WM3526 = test system: WM3526
# WM3619 = test system: WM3619
# WM451Lu = test system: WM451Lu
Structure (SMILES),cleaved PARP positive nuclei fraction (WM115) [%],cleaved PARP positive nuclei fraction (WM1716) [%],cleaved PARP positive nuclei fraction (WM1745) [%],cleaved PARP positive nuclei fraction (WM3526) [%],cleaved PARP positive nuclei fraction (WM3619) [%],cleaved PARP positive nuclei fraction (WM451Lu) [%]
"Nc1ccn([C@@H]2O[C@H](CO)[C@@H](O)C2(F)F)c(=O)n1 [gemcitabine] + C[As](C)SC[C@H](NC(=O)CC[C@H](N)C(=O)O)C(=O)NCC(=O)O [Darinaparsin] (first compound 0.0004 µM, partner dose 0.4 µM)",52.4,110,137,28,125,61
"C[C@]12O[C@H](C[C@]1(O)CO)n1c3ccccc3c3c4c(c5c6ccccc6n2c5c31)CNC4=O [Lestaurtinib] + Cn1nnc2c(C(N)=O)ncn2c1=O [temozolomide] (first compound 0.004 µM, partner dose 2 µM)",68.2,34.6,106,92.3,91.9,230
"O=C(Nc1cccc(Cl)c1)Nc1ncc(CCNc2ncnc3ccsc23)s1 + Cc1cc(SCc2sc(-c3ccc(C(F)(F)F)c(F)c3)nc2C)ccc1OCC(=O)O [GW0742] (first compound 0.0008 µM, partner dose 2 µM)",187,148,107,55.2,87.9,110
"C[C@]12O[C@H](C[C@]1(O)CO)n1c3ccccc3c3c4c(c5c6ccccc6n2c5c31)CNC4=O [Lestaurtinib] + Oc1cc(-c2nc(-c3ccccc3)[nH]c2-c2ccncc2)ccc1Cl [L779450] (first compound 0.004 µM, partner dose 0.2 µM)",85.4,82.4,89.2,444,84.5,38.3
"CS(=O)(=O)CCNCc1ccc(-c2ccc3ncnc(Nc4ccc(OCc5cccc(F)c5)c(Cl)c4)c3c2)o1 [lapatinib] + C[As](C)SC[C@H](NC(=O)CC[C@H](N)C(=O)O)C(=O)NCC(=O)O [Darinaparsin] (first compound 0.8 µM, partner dose 0.4 µM)",168,120,91.9,141,80.6,96.8
"NCC(=O)Nc1ccc(-n2nc(C(F)(F)F)cc2-c2ccc3c(ccc4ccccc43)c2)cc1 + O=C(Oc1ccc([N+](=O)[O-])cc1)N1CCC(C(O)(c2ccc3c(c2)OCO3)c2ccc3c(c2)OCO3)CC1 [JZL184] (first compound 1 µM, partner dose 1 µM)",88.2,92.3,96,97.6,84.7,196
"N.N.[Cl][Pt][Cl] [cisplatin] + NC(=O)Nc1cc(-c2cccc(F)c2)sc1C(=O)N[C@H]1CCCNC1 [AZD7762] (first compound 1.6 µM, partner dose 0.02 µM)",145,47.4,91,62.2,102,128
"CCCCCCCCCCCCCCCCCCOP(=O)([O-])OC1CC[N+](C)(C)CC1 [Perifosine] + O=C(Oc1ccc([N+](=O)[O-])cc1)N1CCC(C(O)(c2ccc3c(c2)OCO3)c2ccc3c(c2)OCO3)CC1 [JZL184] (first compound 0.4 µM, partner dose 1 µM)",97.8,91.5,72.6,316,67.6,66.2
"N.N.[Cl][Pt][Cl] [cisplatin] + C=CCNC1=C2C[C@@H](C)C[C@H](OC)[C@H](O)[C@@H](C)/C=C(\C)[C@H](OC(N)=O)[C@@H](OC)/C=C\C=C(/C)C(=O)NC(=CC1=O)C2=O [Tanespimycin] (first compound 1.6 µM, partner dose 0.002 µM)",137,35,98.4,39.2,136,22.7
"C[C@]12O[C@H](C[C@]1(O)CO)n1c3ccccc3c3c4c(c5c6ccccc6n2c5c31)CNC4=O [Lestaurtinib] + NCC(=O)Nc1ccc(-n2nc(C(F)(F)F)cc2-c2ccc3c(ccc4ccccc43)c2)cc1 [OSU03012] (first compound 0.004 µM, partner dose 1 µM)",58.7,72.2,94.8,98.2,83.7,305
"Cn1cc(C2=C(c3cn(C4CCN(Cc5ccccn5)CC4)c4ccccc34)C(=O)NC2=O)c2ccccc21 [Enzastaurin] + C[As](C)SC[C@H](NC(=O)CC[C@H](N)C(=O)O)C(=O)NCC(=O)O [Darinaparsin] (first compound 0.8 µM, partner dose 0.4 µM)",69.8,29.9,107,25.9,88.1,53.7
